# No constants are given. Whether binding was seen depends on the method and setting. In cells and extracts the contact can be indirect. Here binding means that the protein was enriched with, or labelled near, the bait; the list need not be complete. For some of these results: Where a sequence is shown, tags or fusion partners need not be part of it.
# Chains of the proteins cited; added tags and fusions are not shown.
# UniProt Q5S007: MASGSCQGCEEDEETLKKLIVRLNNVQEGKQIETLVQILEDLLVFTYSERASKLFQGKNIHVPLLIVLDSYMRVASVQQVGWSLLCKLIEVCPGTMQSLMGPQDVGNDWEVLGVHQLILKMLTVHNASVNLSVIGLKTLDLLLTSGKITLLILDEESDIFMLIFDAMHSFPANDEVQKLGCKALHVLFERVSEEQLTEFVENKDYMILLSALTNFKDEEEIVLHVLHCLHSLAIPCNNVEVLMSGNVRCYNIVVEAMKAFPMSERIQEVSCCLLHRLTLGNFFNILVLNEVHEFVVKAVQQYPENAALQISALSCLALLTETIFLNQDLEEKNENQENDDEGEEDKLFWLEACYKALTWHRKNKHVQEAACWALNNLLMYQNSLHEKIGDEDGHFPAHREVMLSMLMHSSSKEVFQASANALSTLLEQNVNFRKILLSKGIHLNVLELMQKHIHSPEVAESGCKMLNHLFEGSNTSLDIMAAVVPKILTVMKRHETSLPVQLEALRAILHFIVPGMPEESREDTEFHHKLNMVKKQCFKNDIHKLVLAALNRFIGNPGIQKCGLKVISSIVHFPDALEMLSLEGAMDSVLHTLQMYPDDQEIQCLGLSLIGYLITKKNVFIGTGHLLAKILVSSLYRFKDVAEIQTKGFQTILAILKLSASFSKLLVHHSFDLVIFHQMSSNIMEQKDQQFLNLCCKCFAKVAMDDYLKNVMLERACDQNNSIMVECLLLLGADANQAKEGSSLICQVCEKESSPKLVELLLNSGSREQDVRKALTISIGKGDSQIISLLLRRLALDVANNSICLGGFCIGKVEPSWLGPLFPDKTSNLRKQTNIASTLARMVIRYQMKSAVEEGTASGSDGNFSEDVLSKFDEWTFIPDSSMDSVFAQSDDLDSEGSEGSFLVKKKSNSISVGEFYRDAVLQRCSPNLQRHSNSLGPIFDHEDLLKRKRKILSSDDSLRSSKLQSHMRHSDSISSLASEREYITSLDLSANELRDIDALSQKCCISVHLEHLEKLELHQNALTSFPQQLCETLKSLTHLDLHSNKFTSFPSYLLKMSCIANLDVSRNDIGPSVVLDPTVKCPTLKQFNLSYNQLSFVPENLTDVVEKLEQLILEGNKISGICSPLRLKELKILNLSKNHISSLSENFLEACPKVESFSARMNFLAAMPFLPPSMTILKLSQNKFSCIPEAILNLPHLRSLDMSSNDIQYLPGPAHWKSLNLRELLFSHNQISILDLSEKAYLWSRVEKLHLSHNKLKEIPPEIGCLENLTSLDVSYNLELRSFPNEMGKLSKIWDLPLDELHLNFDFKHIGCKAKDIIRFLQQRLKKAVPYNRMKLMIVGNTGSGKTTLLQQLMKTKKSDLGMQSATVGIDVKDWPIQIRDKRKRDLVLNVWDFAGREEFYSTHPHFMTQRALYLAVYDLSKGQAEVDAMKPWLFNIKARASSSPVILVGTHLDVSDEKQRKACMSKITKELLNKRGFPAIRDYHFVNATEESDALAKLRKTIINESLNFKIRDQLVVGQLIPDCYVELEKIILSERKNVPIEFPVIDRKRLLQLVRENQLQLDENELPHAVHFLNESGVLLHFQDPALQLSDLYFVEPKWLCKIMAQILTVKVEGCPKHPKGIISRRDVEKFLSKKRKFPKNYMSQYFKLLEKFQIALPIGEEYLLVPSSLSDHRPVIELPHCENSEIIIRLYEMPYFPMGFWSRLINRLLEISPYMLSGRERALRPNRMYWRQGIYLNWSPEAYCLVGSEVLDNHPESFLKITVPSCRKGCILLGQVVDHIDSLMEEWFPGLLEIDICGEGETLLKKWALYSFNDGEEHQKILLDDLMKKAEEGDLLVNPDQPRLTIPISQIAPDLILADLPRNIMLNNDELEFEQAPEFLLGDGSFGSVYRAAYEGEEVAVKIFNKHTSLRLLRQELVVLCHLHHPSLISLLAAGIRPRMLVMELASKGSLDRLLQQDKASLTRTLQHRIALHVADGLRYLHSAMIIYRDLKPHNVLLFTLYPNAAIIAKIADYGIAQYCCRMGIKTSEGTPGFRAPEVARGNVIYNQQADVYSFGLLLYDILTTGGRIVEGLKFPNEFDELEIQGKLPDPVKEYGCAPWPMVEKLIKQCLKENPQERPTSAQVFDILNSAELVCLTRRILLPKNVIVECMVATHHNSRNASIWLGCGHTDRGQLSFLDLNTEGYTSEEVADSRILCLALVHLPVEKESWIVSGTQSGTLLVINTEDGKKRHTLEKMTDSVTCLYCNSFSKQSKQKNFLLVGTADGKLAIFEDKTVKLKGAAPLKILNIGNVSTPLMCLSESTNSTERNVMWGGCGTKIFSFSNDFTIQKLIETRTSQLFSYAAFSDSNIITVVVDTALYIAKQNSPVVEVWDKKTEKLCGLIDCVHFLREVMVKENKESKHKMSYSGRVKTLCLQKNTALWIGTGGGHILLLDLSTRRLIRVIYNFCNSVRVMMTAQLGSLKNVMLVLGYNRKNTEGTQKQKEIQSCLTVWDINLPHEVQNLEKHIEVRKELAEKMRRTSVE
# UniProt Q96L93: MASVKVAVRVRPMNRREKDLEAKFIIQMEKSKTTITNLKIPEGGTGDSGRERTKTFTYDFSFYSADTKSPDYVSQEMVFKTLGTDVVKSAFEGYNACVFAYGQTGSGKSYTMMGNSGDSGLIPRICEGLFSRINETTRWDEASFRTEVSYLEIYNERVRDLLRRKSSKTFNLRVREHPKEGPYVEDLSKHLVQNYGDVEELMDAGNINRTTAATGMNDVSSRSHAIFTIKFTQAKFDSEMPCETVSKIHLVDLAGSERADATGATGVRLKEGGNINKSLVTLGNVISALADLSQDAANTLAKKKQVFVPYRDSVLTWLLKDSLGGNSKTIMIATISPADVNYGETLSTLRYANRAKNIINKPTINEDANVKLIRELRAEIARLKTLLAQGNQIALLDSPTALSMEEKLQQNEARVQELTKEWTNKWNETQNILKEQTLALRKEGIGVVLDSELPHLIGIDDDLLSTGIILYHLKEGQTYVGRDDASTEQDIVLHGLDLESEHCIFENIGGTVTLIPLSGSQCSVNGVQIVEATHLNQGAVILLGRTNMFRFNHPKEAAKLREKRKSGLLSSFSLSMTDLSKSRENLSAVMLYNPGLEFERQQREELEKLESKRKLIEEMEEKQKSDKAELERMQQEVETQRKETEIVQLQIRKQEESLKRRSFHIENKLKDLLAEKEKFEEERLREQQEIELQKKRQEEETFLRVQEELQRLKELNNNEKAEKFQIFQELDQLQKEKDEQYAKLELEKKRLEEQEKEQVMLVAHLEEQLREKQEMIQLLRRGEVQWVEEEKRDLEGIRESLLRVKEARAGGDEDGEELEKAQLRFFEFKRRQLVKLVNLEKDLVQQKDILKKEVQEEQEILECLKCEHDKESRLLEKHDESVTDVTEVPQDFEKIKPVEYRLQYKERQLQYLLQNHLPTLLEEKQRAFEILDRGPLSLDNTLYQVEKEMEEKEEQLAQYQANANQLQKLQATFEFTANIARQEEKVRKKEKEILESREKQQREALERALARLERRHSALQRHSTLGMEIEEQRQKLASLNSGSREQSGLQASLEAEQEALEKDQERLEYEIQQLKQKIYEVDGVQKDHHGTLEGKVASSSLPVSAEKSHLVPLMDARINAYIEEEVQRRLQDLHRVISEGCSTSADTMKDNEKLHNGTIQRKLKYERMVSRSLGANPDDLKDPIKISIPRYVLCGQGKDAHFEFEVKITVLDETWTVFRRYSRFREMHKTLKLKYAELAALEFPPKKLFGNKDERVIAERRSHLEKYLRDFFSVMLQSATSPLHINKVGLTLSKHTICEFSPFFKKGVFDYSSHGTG
# UniProt Q8NEY1: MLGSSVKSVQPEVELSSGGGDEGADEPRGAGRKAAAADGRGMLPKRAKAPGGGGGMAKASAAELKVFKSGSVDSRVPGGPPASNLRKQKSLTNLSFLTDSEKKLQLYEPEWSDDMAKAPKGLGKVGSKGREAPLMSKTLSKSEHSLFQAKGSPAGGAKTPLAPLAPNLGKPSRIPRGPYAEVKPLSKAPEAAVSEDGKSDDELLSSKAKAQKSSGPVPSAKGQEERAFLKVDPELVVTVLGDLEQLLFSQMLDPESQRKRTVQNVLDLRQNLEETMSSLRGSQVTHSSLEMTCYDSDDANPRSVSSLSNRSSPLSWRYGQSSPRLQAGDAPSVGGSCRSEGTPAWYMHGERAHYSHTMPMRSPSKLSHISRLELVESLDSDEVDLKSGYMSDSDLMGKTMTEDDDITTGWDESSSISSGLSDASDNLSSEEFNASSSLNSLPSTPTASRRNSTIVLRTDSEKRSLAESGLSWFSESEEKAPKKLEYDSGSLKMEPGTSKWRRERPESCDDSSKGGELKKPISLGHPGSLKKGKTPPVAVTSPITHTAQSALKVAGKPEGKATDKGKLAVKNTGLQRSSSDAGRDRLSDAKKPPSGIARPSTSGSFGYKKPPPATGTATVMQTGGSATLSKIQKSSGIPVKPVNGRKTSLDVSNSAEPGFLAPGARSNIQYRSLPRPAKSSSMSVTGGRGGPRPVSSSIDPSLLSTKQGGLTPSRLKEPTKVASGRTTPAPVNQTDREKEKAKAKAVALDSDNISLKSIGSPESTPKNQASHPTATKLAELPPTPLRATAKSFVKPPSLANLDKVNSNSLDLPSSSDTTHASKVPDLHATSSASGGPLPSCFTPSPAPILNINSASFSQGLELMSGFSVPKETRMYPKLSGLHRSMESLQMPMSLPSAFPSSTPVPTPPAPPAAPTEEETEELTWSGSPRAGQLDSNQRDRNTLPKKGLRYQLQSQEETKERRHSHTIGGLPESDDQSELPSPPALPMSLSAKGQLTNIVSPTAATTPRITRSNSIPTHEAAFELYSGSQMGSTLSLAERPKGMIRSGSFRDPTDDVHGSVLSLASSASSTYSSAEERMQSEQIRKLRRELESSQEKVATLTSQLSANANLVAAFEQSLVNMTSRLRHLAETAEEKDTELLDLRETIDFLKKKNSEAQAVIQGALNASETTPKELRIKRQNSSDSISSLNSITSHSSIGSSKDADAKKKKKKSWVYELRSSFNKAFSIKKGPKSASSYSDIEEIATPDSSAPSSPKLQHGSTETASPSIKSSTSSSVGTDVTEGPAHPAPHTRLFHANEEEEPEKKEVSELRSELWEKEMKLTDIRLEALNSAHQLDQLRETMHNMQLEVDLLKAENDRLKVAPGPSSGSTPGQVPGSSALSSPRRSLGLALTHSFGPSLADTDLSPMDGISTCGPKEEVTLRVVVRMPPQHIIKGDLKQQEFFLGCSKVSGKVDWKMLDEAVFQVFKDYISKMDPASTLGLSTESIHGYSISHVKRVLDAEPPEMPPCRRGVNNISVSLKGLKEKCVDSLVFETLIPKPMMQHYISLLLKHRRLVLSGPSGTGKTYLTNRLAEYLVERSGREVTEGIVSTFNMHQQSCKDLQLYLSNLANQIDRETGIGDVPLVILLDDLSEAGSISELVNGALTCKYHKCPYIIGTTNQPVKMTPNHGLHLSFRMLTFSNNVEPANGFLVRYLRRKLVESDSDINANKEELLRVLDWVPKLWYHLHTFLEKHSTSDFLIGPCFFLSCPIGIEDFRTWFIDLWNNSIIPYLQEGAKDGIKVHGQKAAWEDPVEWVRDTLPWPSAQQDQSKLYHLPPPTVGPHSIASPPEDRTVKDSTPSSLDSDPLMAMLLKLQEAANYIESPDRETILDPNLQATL
# UniProt O14641: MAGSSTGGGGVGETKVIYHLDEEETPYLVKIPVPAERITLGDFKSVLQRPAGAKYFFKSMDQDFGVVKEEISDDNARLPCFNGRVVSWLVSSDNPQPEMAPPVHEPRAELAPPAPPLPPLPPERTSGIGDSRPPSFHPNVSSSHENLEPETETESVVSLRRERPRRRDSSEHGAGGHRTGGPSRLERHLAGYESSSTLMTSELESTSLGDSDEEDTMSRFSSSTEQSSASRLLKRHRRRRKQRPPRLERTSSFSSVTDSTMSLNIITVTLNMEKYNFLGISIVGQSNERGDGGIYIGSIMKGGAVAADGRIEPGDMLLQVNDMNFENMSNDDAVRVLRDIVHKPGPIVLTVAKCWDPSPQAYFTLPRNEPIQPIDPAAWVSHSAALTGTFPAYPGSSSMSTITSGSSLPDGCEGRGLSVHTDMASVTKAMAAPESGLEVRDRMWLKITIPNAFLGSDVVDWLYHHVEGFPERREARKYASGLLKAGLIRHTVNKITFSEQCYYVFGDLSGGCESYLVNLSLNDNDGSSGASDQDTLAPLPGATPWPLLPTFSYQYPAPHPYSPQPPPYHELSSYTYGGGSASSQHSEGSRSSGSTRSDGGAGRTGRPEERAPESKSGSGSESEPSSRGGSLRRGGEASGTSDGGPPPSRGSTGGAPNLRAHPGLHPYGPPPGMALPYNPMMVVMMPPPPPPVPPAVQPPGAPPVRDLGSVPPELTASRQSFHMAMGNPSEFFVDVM
# Biological target: LRRK2 with an N-terminal BioID tag (BioID1-LRRK2, BioID2-LRRK2 or miniTurbo-LRRK2; pooled 'BioID set') (human) (UniProt Q5S007)
# Experiment: proximity labelling; BioID1-, BioID2- or miniTurbo-LRRK2 transiently expressed in HEK293T against the tag-only control; 50 uM biotin (up to 16 h; miniTurbo 2 h after overnight starvation); Strep-Tactin enrichment, LC-MSMS; SAINTexpress and CRAPome filter, hits of the three tags unified ('BioID set')
row,Molecule,binding
1,Kinesin-like protein KIF16B (from UniProt Q96L93 1-1317),binds
2,Trimethylguanosine synthase (from UniProt Q96RS0 1-853) (enzyme),binds
3,Neuron navigator 1 (from UniProt Q8NEY1 1-1877),binds
4,Protein FAM193A (from UniProt P78312 1-1515),binds
5,DVL2 (from UniProt O14641 1-736),binds

# Next, values leading:
row,binding,Molecule
1,binds,AXIN1 (from UniProt O15169 1-862)
2,binds,MON2 (from UniProt Q7Z3U7 1-1717)
3,binds,ANAPC5 (from UniProt Q9UJX4 1-755)

# Biological target: LRRK2 with an N-terminal BioID tag (BioID1-LRRK2, BioID2-LRRK2 or miniTurbo-LRRK2; pooled 'BioID set') (human) (UniProt Q5S007)
# Experiment: as above
# Remark: another data set of the same source
row,binding,Molecule
1,binds,"DCUN1D4 (protein, UniProt Q92564 1-292) MHSDAAAVNFQLNSHLSTLANIHKIYHTLNKLNLTEDIGQDDHQTGSLRSCSSSDCFNKVMPPRKKRRPASGDDLSAKKSRHDSMYRKYDSTRIKTEEEAFSSKRCLEWFYEYAGTDDVVGPEGMEKFCEDIGVEPENVVMLVLAWKLDAQNMGYFTLQEWLKGMTSLQCDTTEKLRNTLDYLRSFLNDSTNFKLIYRYAFDFAREKDQRSLDINTAKCMLGLLLGKIWPLFPVFHQFLEQSKYKVINKDQWCNVLEFSRTINLDLSNYDEDGAWPVLLDEFVEWYKDKQMS"
2,binds,"Centrosomal protein of 85 kDa (protein, UniProt Q6P2H3 1-762) MAMQEKYPTEGISHVTSPSSDVIQKGSSLGTEWQTPVISEPFRSRFSRCSSVADSGDTAIGTSCSDIAEDFCSSSGSPPFQPIKSHVTIPTAHVMPSTLGTSPAKPNSTPVGPSSSKLPLSGLAESVGMTRNGDLGAMKHSPGLSRDLMYFSGATGENGIEQSWFPAVGHERQEEARKFDIPSMESTLNQSAMMETLYSDPHHRVRFHNPRTSTSKELYRVLPEAKKAPGSGAVFERNGPHSNSSGVLPLGLQPAPGLSKPLPSQVWQPSPDTWHPREQSCELSTCRQQLELIRLQMEQMQLQNGAICHHPAAFGPSLPILEPAQWISILNSNEHLLKEKELLIDKQRKHISQLEQKVRESELQVHSALLGRPAPFGDVCLLRLQELQRENTFLRAQFAQKTEALSREKIDLEKKLSASEVEVQLIRESLKVALQKHSEEVKKQEERVKGRDKHINNLKKKCQKESEQNREKQQRIETLERYLADLPTLEDHQKQSQQLKDSELKSTELQEKVTELESLLEETQAICREKEIQLESLRQREAEFSSAGHSLQDKQSVEETSGEGPEVEMESWQKRYDSLQKIVEKQQQKMDQLRSQVQSLEQEVAQEEGTSQALREEAQRRDSALQQLRTAVKELSVQNQDLIEKNLTLQEHLRQAQPGSPPSPDTAQLALELHQELASCLQDLQAVCSIVTQRAQGHDPNLSLLLGIHSAQHPETQLDLQKPDVIKRKLEEVQQLRRDIEDLRTTMSDRYAQDMGENCVTQ"
3,binds,"DVL1 (protein, UniProt O14640 1-695) MAETKIIYHMDEEETPYLVKLPVAPERVTLADFKNVLSNRPVHAYKFFFKSMDQDFGVVKEEIFDDNAKLPCFNGRVVSWLVLAEGAHSDAGSQGTDSHTDLPPPLERTGGIGDSRPPSFHPNVASSRDGMDNETGTESMVSHRRERARRRNREEAARTNGHPRGDRRRDVGLPPDSASTALSSELESSSFVDSDEDGSTSRLSSSTEQSTSSRLIRKHKRRRRKQRLRQADRASSFSSITDSTMSLNIVTVTLNMERHHFLGISIVGQSNDRGDGGIYIGSIMKGGAVAADGRIEPGDMLLQVNDVNFENMSNDDAVRVLREIVSQTGPISLTVAKCWDPTPRSYFTVPRADPVRPIDPAAWLSHTAALTGALPRYGTSPCSSAVTRTSSSSLTSSVPGAPQLEEAPLTVKSDMSAVVRVMQLPDSGLEIRDRMWLKITIANAVIGADVVDWLYTHVEGFKERREARKYASSLLKHGFLRHTVNKITFSEQCYYVFGDLCSNLATLNLNSGSSGTSDQDTLAPLPHPAAPWPLGQGYPYQYPGPPPCFPPAYQDPGFSYGSGSTGSQQSEGSKSSGSTRSSRRAPGREKERRAAGAGGSGSESDHTAPSGVGSSWRERPAGQLSRGSSPRSQASATAPGLPPPHPTTKAYTVVGGPPGGPPVRELAAVPPELTGSRQSFQKAMGNPCEFFVDIM"
4,binds,"SNAP47 (protein, UniProt Q5SQN1 1-464) MRAARRGLHCAGAERPRRRGRLWDSSGVPQRQKRPGPWRTQTQEQMSRDVCIHTWPCTYYLEPKRRWVTGQLSLTSLSLRFMTDSTGEILVSFPLSSIVEIKKEASHFIFSSITILEKGHAKHWFSSLRPSRNVVFSIIEHFWRELLLSQPGAVADASVPRTRGEELTGLMAGSQKRLEDTARVLHHQGQQLDSVMRGLDKMESDLEVADRLLTELESPAWWPFSSKLWKTPPETKPREDVSMTSCEPFGKEGILIKIPAVISHRTESHVKPGRLTVLVSGLEIHDSSSLLMHRFEREDVDDIKVHSPYEISIRQRFIGKPDMAYRLISAKMPEVIPILEVQFSKKMELLEDALVLRSARTSSPAEKSCSVWHAASGLMGRTLHREPPAGDQEGTALHLQTSLPALSEADTQELTQILRRMKGLALEAESELERQDEALDGVAAAVDRATLTIDKHNRRMKRLT"

# Biological target: miniTurbo-LRRK2 (human) (UniProt Q5S007)
# Experiment: proximity labelling; mT-LRRK2 co-expressed with HA-RAB29 against empty pcDNA3.0 vector; biotin labelling, Strep-Tactin enrichment, LC-MSMS, LFQ with FDR-controlled t test
row,binding,Molecule
1,binds,"Extended synaptotagmin-1 (protein, UniProt Q9BSJ8 1-1104) MERSPGEGPSPSPMDQPSAPSDPTDQPPAAHAKPDPGSGGQPAGPGAAGEALAVLTSFGRRLLVLIPVYLAGAVGLSVGFVLFGLALYLGWRRVRDEKERSLRAARQLLDDEEQLTAKTLYMSHRELPAWVSFPDVEKAEWLNKIVAQVWPFLGQYMEKLLAETVAPAVRGSNPHLQTFTFTRVELGEKPLRIIGVKVHPGQRKEQILLDLNISYVGDVQIDVEVKKYFCKAGVKGMQLHGVLRVILEPLIGDLPFVGAVSMFFIRRPTLDINWTGMTNLLDIPGLSSLSDTMIMDSIAAFLVLPNRLLVPLVPDLQDVAQLRSPLPRGIIRIHLLAARGLSSKDKYVKGLIEGKSDPYALVRLGTQTFCSRVIDEELNPQWGETYEVMVHEVPGQEIEVEVFDKDPDKDDFLGRMKLDVGKVLQASVLDDWFPLQGGQGQVHLRLEWLSLLSDAEKLEQVLQWNWGVSSRPDPPSAAILVVYLDRAQDLPLKKGNKEPNPMVQLSIQDVTQESKAVYSTNCPVWEEAFRFFLQDPQSQELDVQVKDDSRALTLGALTLPLARLLTAPELILDQWFQLSSSGPNSRLYMKLVMRILYLDSSEICFPTVPGCPGAWDVDSENPQRGSSVDAPPRPCHTTPDSQFGTEHVLRIHVLEAQDLIAKDRFLGGLVKGKSDPYVKLKLAGRSFRSHVVREDLNPRWNEVFEVIVTSVPGQELEVEVFDKDLDKDDFLGRCKVRLTTVLNSGFLDEWLTLEDVPSGRLHLRLERLTPRPTAAELEEVLQVNSLIQTQKSAELAAALLSIYMERAEDLPLRKGTKHLSPYATLTVGDSSHKTKTISQTSAPVWDESASFLIRKPHTESLELQVRGEGTGVLGSLSLPLSELLVADQLCLDRWFTLSSGQGQVLLRAQLGILVSQHSGVEAHSHSYSHSSSSLSEEPELSGGPPHITSSAPELRQRLTHVDSPLEAPAGPLGQVKLTLWYYSEERKLVSIVHGCRSLRQNGRDPPDPYVSLLLLPDKNRGTKRRTSQKKRTLSPEFNERFEWELPLDEAQRRKLDVSVKSNSSFMSRERELLGKVQLDLAETDLSQGVARWYDLMDNKDKGSS"

# Reference: PMC13304329
